A short description of the data set: physchem. As for the experimental part: The mobile phase consisted, in all cases, of 20 mM MOPS buffer at pH 7.4, and methanol in varying proportions from 70 to 15% v/v. […] The capacity factors data (k′=(tR−t0)/t0) obtained at various amounts of methanol were then extrapolated to 0% methanol and reported as log k′w, using a linear procedure. […] Injections of pure methanol were used to determine t0, i.e. the dead time, while tR has the usual meaning of the retention time for the analyte.
All the chromatographic runs were performed on a HP-1100 HPLC ChemStation at the ambient temperature. The columns used were Supelcosil LC-ABZ, 5μm, 4.6×50 mm. […] Columns having different silica bond lots were tested to ensure reproducibility. Samples were dissolved in 1:1 methanol/water at a concentration of 10-30 μg/mL. The flow rate was 0.5, 1 or 2 mL/min, depending on the lipophilicity range. Three lipophilicity ranges were established using, in all cases, three points for the extrapolation to k′w, as described in the table below.
The samples were placed in the appropriate range by estimating their lipophilicity via computed values, or by prior experience with a given class. In each case the entire group of samples was run before the column is equilibrated to the next condition, in an automated fashion, and the initial estimation need not be very accurate. […]

`COC(=O)C1=C(C)NC(C)=C(C(=O)OC)C1c1ccccc1[N+](=O)[O-]` [Nifedipine] returned a chromatographic logP of 2.86.

These data come from US6548307B2, “Determination of logP coefficients via a RP-HPLC column” (Pfizer Inc., priority 2000, dated 2003).
